Screen size: about 390,000 compounds; about 4,000 (1%) were called active. Calls follow the shape of the dose curve; as a rule, active = well fitted inhibition curve with a large enough effect; inconclusive = small, poorly fitted or top-dose-only effect, or another doubt; inactive = no such curve, though single readings can be large or run the other way. The inconclusive results got no clear call from the source. A potency beside an inconclusive call is a rough fit, not a confirmed value.
These molecules were tested against DNA polymerase iota (Homo sapiens) (UniProt Q9UNA4) (assay: qHTS for Inhibitors of Polymerase Iota). Conditions: Pol iota fluorescent replication assay, 10 min; series mostly up to 115 µM.
Description: DNA polymerases, such as Pol iota, are specifically involved in DNA repair. Pol iota specifically plays an important role in translesion synthesis, where the normal high-fidelity DNA polymerases cannot proceed and DNA synthesis stalls. […] Thus, while pol eta's (and most likely iota's) normal function is to protect humans against the deleterious consequences of DNA damage, under certain conditions they can have deleterious effects on human health. As a consequence, we propose to utilize a high throughput replication assay to identify small molecule inhibitors of pol iota.
In a collaboration between the National Institute of Child Health & Human Development (NICHD) and NIH Chemical Genomics Center, a high-throughput, fluorescent screen was developed to screen the NIH Molecular Libraries Small Molecule Repository (MLSMR). This screen is used to identify inhibitors of pol iota.
NIH Chemical Genomics Center [NCGC]
NIH Molecular Libraries Probe Centers Network [MLPCN]
Assay Submitter (PI): Roger Woodgate, NICHD)
Three microliters of reagents (buffer in column 3 and 4 as negative control and 10 nM Pol iota in columns 1, 2, and 5-48) will be dispensed into 1,536-well black solid-bottomed plate. Compounds (23 nL) will be transferred via Kalypsys pin tool equipped with 1536-pin array. The plates will then be incubated for 15 min at room temperature, and 1 µL substrate (50 nM final concentration) will be added to start the reaction and kinetically read twice at 0 min and 10 min on the Viewlux reader.
Potency is read from the fitted curve at half-maximal effect.

The chains behind the UniProt entries cited, without tags or fusion partners. Where a name states a change or a piece, a line headed by the entry shows the natural chain unless it says otherwise.
UniProt Q9UNA4: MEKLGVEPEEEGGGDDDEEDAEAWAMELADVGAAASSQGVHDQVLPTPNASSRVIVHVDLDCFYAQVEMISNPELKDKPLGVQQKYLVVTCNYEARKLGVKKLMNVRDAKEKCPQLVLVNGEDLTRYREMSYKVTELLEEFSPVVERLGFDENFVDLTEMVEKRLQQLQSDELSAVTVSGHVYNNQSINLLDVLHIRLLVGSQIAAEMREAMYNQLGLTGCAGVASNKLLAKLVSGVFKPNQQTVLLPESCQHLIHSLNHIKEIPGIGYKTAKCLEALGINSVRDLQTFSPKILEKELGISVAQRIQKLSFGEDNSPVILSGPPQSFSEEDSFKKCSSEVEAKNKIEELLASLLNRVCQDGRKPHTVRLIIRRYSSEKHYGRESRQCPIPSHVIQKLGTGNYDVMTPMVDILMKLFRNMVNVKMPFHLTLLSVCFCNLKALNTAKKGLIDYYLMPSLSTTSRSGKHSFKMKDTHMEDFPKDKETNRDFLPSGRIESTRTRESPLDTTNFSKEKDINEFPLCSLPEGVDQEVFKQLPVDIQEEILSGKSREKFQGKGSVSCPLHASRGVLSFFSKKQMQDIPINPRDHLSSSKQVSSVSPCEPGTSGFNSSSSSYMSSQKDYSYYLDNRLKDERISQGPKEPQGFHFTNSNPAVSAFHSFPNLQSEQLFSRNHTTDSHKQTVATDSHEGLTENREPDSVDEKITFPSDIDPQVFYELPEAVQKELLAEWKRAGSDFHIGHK

Compound	Potency
CS(=O)(=O)C1=NSC2=NC(=O)/C(=C\c3ccc(OC(=O)c4ccco4)c(Br)c3)C(=N)N21	inconclusive: 17.8 µM [inhibitor, partial curve, poor fit]
CC(C)(C)c1ccc2c(c1)OC(C(=O)N/N=C\c1ccc(-c3cccc(C(=O)O)c3)o1)CO2 (stereo not drawn)	inconclusive: 56.2 µM [inhibitor, partial curve, poor fit]
CCOc1cc(/C=C2/C(=N)N3C(=NC2=O)SN=C3S(=O)(=O)CC)ccc1OC(=O)c1ccco1	inconclusive: 14.1 µM [inhibitor, full curve, poor fit]

Reference: PubChem BioAssay AID588590 (National Center for Advancing Translational Sciences (NCATS), 2011)
